The list shows only some results of the screen, not a fair sample: it gathers tests that were run many times, whatever their T/C, doses with no T/C, and many T/C values between a quarter and a half above the control. Other doses and runs of a compound stand elsewhere. T/C: endpoint of the treated group in % of that of the vehicle group. Some doses have a count of surviving animals in place of a T/C: the source holds a T/C of zero for them, seemingly a mark for toxic or unscored doses. Some survivor counts are full or nearly so, which does not show that the dose was tolerated: the source hardly ever lists a survival T/C far under the control, and the zero likely stands for such cases as well. Survivors were counted at the toxicity check, usually on the fifth day, unless a day is given; later deaths do not show. Schedules are NCI's codes, taken here to give the interval after Q, in days (D) or hours (H), and the number of doses after X. Some schedules carry Z or #; the key to these is not given. Some doses were run more than once; the values are given in rising order. For survival time, this PubChem deposit counts one and a half times the control or more as active, and values a quarter to a half above the control carry no call in these data; other NCI protocols may use other cut-offs. Some T/C values are followed by the survivors on the day toxicity was checked, most often the fifth; where none is given, no animal had died by that day.
System: BDF1 mice, L1210 6-MP/6-TG resistant leukemia ip, survival T/C
Test: NCI In Vivo Anticancer Drug Screen. Data for tumor model L1210 Leukemia resistant to 6-MP and 6-Thioguanine; NSC 755, NSC 752 (intraperitoneal) in B6D2F1 (BDF1) mice
Settings: T/C endpoint: mean survival time, higher T/C = longer survival
Experimental: The antitumor activity of compounds was measured in mice bearing transplantable tumors. Survival or tumor size were measured and the results are expressed as the measurement made in the treated group (T) divided by the measurement made in the vehicle treated control group (C). The tumor model used in this assay is L1210 Leukemia resistant to 6-MP and 6-Thioguanine; NSC 755, NSC 752 (intraperitoneal) in B6D2F1 (BDF1) mice

[1] = dose: 8.0 mg/kg/injection, schedule: Q01DX Z (ip), vehicle: carboxymethylcellulose (CMC)
[2] = dose: 500.0 mg/kg/injection, schedule: Q01DX Z (ip), vehicle: other
[3] = dose: 200.0 mg/kg/injection, schedule: Q01DX Z (ip), vehicle: other
[4] = dose: 375.0 mg/kg/injection, schedule: Q01DX Z (ip), vehicle: carboxymethylcellulose (CMC)
[5] = dose: 500.0 mg/kg/injection, schedule: Q01DX Z (ip), vehicle: carboxymethylcellulose (CMC)
[6] = dose: 250.0 mg/kg/injection, schedule: Q01DX Z (ip), vehicle: saline
[7] = dose: 200.0 mg/kg/injection, schedule: Q01DX Z (ip), vehicle: saline
[8] = dose: 25.0 mg/kg/injection, schedule: Q01DX Z (ip), vehicle: saline
[9] = dose: 50.0 mg/kg/injection, schedule: Q01DX Z (ip), vehicle: saline
[10] = dose: 25.0 mg/kg/injection, schedule: Q01DX Z (ip), vehicle: carboxymethylcellulose (CMC)
[11] = dose: 50.0 mg/kg/injection, schedule: Q01DX Z (ip), vehicle: carboxymethylcellulose (CMC)
[12] = dose: 75.0 mg/kg/injection, schedule: Q01DX Z (ip), vehicle: carboxymethylcellulose (CMC)

O=c1[nH]cnc2n[nH]nc12
survivor count (dose: 948.0 mg/kg/injection, schedule: Q01DX009 (ip), vehicle: Klucel (hydroxypropylcellulose) (HPC)): 1 of 10
survivor count (dose: 1422.0 mg/kg/injection, schedule: Q01DX009 (ip), vehicle: saline with Tween-80): 9 of 10

Nn1cnc2c(=S)nc[nH]c21
survivor count (dose: 120.0 mg/kg/injection, schedule: Q01DX015 (ip), vehicle: other): 10 of 10
survivor count (dose: 200.0 mg/kg/injection, schedule: Q01DX015 (ip), vehicle: other): 10 of 10

O=C(Nc1ccc(C2=NCCCN2)cc1)c1ccc(NC(=O)c2ccc(C3=NCCCN3)cc2)cc1
T/C [1]: 142 % of control
survivor count (dose: 32.0 mg/kg/injection, schedule: Q01DX Z (ip), vehicle: carboxymethylcellulose (CMC)): 6 of 6

CCSc1nc(Cl)cc(Sc2nc(N)nc3nc[nH]c23)n1
survivor count (dose: 31.0 mg/kg/injection, schedule: Q01DX Z (ip), vehicle: other): 6 of 7
survivor count (dose: 62.0 mg/kg/injection, schedule: Q01DX Z (ip), vehicle: other): 6 of 7
survivor count (dose: 125.0 mg/kg/injection, schedule: Q01DX Z (ip), vehicle: other): 6 of 6
survivor count (dose: 250.0 mg/kg/injection, schedule: Q01DX Z (ip), vehicle: other): 5 of 6
survivor count [2]: 6 of 6
survivor count (dose: 1000.0 mg/kg/injection, schedule: Q01DX Z (ip), vehicle: other): 3 of 6

CN(C)c1nc(N(C)C)nc(N(C)C)n1
survivor count [3]: 6 of 6
survivor count (dose: 400.0 mg/kg/injection, schedule: Q01DX Z (ip), vehicle: other): 0 of 6

Cn1cnc2c(SCc3ccccc3)ncnc21
survivor count [4]: 6 of 6
survivor count [5]: 1 of 6

CCOC(=O)NP(=O)(N1CC1(C)C)N1CC1(C)C (configuration not stated)
T/C [6]: 133 % of control [5 of 6 alive]

CSc1ncnc2nc[nH]c12
survivor count (dose: 180.0 mg/kg/injection, schedule: Q01DX001 (ip), vehicle: carboxymethylcellulose (CMC)): 6 of 10
survivor count (dose: 250.0 mg/kg/injection, schedule: Q01DX Z (ip), vehicle: carboxymethylcellulose (CMC)): 2 of 6
survivor count (dose: 270.0 mg/kg/injection, schedule: Q01DX001 (ip), vehicle: carboxymethylcellulose (CMC)): 6 of 10
survivor count (dose: 400.0 mg/kg/injection, schedule: Q01DX001 (ip), vehicle: carboxymethylcellulose (CMC)): 0 of 9 and 2 of 10
survivor count (dose: 600.0 mg/kg/injection, schedule: Q01DX001 (ip), vehicle: carboxymethylcellulose (CMC)): 0 of 10

Cc1c(O)ccc(=O)n1O
T/C (dose: 110.0 mg/kg/injection, schedule: Q01DX Z (ip), vehicle: other): 127 % of control
survivor count (dose: 247.0 mg/kg/injection, schedule: Q01DX Z (ip), vehicle: other): 6 of 6

Nc1ccc(OC(=O)Oc2ccc(N)cc2)cc1
survivor count (dose: 500.0 mg/kg/injection, schedule: Q01DX Z (ip), vehicle: saline): 3 of 6

O=C1C(NC(=O)C2CCCCC2)=C(N2CC2)C(=O)C(NC(=O)C2CCCCC2)=C1N1CC1
T/C [4]: 128 % of control
T/C [5]: 135 % of control

C[C@H](N)C(=O)N[C@@H]1[C@H]2C(=C(O)C[C@@H](O)[C@@H]2O)C(=O)O[C@@H]1C
T/C (dose: 99.0 mg/kg/injection, schedule: Q01DX015 (ip), vehicle: carboxymethylcellulose (CMC)): 143 % of control
T/C (dose: 148.0 mg/kg/injection, schedule: Q01DX015 (ip), vehicle: carboxymethylcellulose (CMC)): 149 % of control
T/C (dose: 221.0 mg/kg/injection, schedule: Q01DX015 (ip), vehicle: carboxymethylcellulose (CMC)): 129 % of control
T/C [6]: 139 % of control
T/C (dose: 502.0 mg/kg/injection, schedule: Q01DX015 (ip), vehicle: carboxymethylcellulose (CMC)): 142 % of control
T/C (dose: 1000.0 mg/kg/injection, schedule: Q01DX Z (ip), vehicle: saline): 136 % of control
T/C (dose: 1500.0 mg/kg/injection, schedule: Q01DX Z (ip), vehicle: saline): 140 % of control

S=c1nc[nH]c2c1ncn2CN1CCCCC1
survivor count (dose: 25.0 mg/kg/injection, schedule: Q01DX009 (ip), vehicle: other): 6 of 6
survivor count (dose: 100.0 mg/kg/injection, schedule: Q01DX009 (ip), vehicle: other): 6 of 6
survivor count (dose: 200.0 mg/kg/injection, schedule: Q01DX009 (ip), vehicle: other): 6 of 6

O=C(OCC1OC(n2cnc3c(=S)nc[nH]c32)C(OC(=O)c2ccc([N+](=O)[O-])cc2)C1OC(=O)c1ccc([N+](=O)[O-])cc1)c1ccc([N+](=O)[O-])cc1 (configuration not stated)
survivor count (dose: 37.5 mg/kg/injection, schedule: Q01DX015 (ip), vehicle: other): 6 of 6
survivor count (dose: 100.0 mg/kg/injection, schedule: Q01DX Z (ip), vehicle: other): 7 of 7
survivor count [3]: 7 of 7

C[N+](C)(C)c1ncnc2nc[nH]c12
survivor count (dose: 180.0 mg/kg/injection, schedule: Q01DX Z (ip), vehicle: saline): 10 of 10
survivor count [7]: 6 of 6
survivor count (dose: 300.0 mg/kg/injection, schedule: Q01DX Z (ip), vehicle: saline): 4 of 6

c1nc(SC2=NCCN2)c2[nH]cnc2n1
survivor count [8]: 6 of 6
survivor count [9]: 6 of 6

CN(C)c1ccc(/C=C\c2ccnc3ccccc23)cc1
survivor count [10]: 6 of 6
survivor count (dose: 37.5 mg/kg/injection, schedule: Q01DX Z (ip), vehicle: carboxymethylcellulose (CMC)): 6 of 6
survivor count [11]: 6 of 6
survivor count [12]: 5 of 6

CN(C)/N=N/c1nc[nH]c1C(N)=O
T/C (dose: 100.0 mg/kg/injection, schedule: Q01DX015 (ip), vehicle: carboxymethylcellulose (CMC)): 129 % of control
survivor count (dose: 400.0 mg/kg/injection, schedule: Q01DX015 (ip), vehicle: carboxymethylcellulose (CMC)): 4 of 6

O=P1(N(CCCl)CCCl)NCCCO1 (configuration not stated)
T/C (dose: 18.0 mg/kg/injection, schedule: Q01DX Z (ip), vehicle: saline): 126 % of control
T/C [8]: 137 % of control
T/C [9]: 145 % of control
survivor count [7]: 6 of 6
survivor count (dose: 400.0 mg/kg/injection, schedule: Q01DX Z (ip), vehicle: saline): 0 of 6

Cn1c(N)nc2nc[nH]c2c1=S
survivor count (dose: 150.0 mg/kg/injection, schedule: Q01DX Z (ip), vehicle: carboxymethylcellulose (CMC)): 2 of 6

CC(=O)N(C)C
T/C (dose: 62.5 mg/kg/injection, schedule: Q01DX Z (ip), vehicle: saline): 127 % of control

Cc1cc(N(CCCl)CCCl)ccc1N=Nc1ccccc1C(=O)O
survivor count [11]: 5 of 6
survivor count [12]: 4 of 6
survivor count (dose: 100.0 mg/kg/injection, schedule: Q01DX Z (ip), vehicle: carboxymethylcellulose (CMC)): 0 of 6

O=c1cn[nH]c(=O)[nH]1
T/C (dose: 750.0 mg/kg/injection, schedule: Q01DX Z (ip), vehicle: carboxymethylcellulose (CMC)): 137 % of control

Oc1cc(CN(CCCl)CCCl)c(O)cc1CN(CCCl)CCCl
survivor count (dose: 0.06 mg/kg/injection, schedule: Q01DX Z (ip), vehicle: saline): 3 of 6
T/C (dose: 0.12 mg/kg/injection, schedule: Q01DX Z (ip), vehicle: saline): 126 % of control [4 of 6 alive]
survivor count (dose: 0.25 mg/kg/injection, schedule: Q01DX Z (ip), vehicle: saline): 2 of 6
T/C (dose: 1.0 mg/kg/injection, schedule: Q01DX Z (ip), vehicle: carboxymethylcellulose (CMC)): 136 and 146 % of control
survivor count [1]: 6 of 6
survivor count (dose: 12.5 mg/kg/injection, schedule: Q01DX Z (ip), vehicle: carboxymethylcellulose (CMC)): 1 of 6
survivor count [10]: 0 of 6
survivor count [11]: 0 of 6
survivor count [12]: 0 of 6

Clc1ccccc1CSc1ncnc2nc[nH]c12
survivor count [2]: 7 of 10
